These are yes or no findings as the source states them, for the method shown. In cells and extracts the contact can be indirect. Some binding calls cover weakened binding; strength is not graded here. Tags and fused reporters may be left off the sequences shown.

Amino acid sequences for entries named in this document (tags omitted). Residues count along the entry.
UniProt O75022, residues 24-631: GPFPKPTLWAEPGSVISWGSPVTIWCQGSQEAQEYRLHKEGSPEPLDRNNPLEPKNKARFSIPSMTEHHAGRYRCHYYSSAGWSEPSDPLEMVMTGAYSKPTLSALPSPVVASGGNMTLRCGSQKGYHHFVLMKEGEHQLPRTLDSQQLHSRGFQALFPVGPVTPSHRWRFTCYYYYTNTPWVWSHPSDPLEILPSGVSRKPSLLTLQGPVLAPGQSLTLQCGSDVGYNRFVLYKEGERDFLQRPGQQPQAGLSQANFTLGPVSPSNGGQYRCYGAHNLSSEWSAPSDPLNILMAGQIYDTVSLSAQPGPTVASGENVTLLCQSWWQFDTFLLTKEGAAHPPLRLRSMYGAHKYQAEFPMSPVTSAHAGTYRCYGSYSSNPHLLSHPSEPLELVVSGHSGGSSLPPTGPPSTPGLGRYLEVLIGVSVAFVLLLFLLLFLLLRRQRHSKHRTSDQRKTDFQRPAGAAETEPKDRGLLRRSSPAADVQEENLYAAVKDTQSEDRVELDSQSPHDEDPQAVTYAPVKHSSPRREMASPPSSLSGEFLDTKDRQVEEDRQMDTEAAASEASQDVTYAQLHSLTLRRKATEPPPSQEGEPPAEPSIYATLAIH

The target of the assay is LILRB3 (leukocyte immunoglobulin-like receptor subfamily B member 3), full length, on cells (human) (UniProt O75022). In words: co-immunoprecipitation with human anti-LILRB3 antibody from primary M5 AML cell lysate.

B1: TRAF2 (endogenous or expressed without a stated tag) (protein, human, UniProt Q12933 2-501, looked up)
chain: AAASVTPPGSLELLQPGFSKTLLGTKLEAKYLCSACRNVLRRPFQAQCGHRYCSFCLASILSSGPQNCAACVHEGIYEEGISILESSSAFPDNAARREVESLPAVCPSDGCTWKGTLKEYESCHEGRCPLMLTECPACKGLVRLGEKERHLEHECPERSLSCRHCRAPCCGADVKAHHEVCPKFPLTCDGCGKKKIPREKFQDHVKTCGKCRVPCRFHAIGCLETVEGEKQQEHEVQWLREHLAMLLSSVLEAKPLLGDQSHAGSELLQRCESLEKKTATFENIVCVLNREVERVAMTAEACSRQHRLDQDKIEALSSKVQQLERSIGLKDLAMADLEQKVLEMEASTYDGVFIWKISDFARKRQEAVAGRIPAIFSPAFYTSRYGYKMCLRIYLNGDGTGRGTHLSLFFVVMKGPNDALLRWPFNQKVTLMLLDQNNREHVIDAFRPDVTSSSFQRPVNDMNIASGCPLFCPVSKMEAKNSYVRDDAIFIKAIVDLTGL
For B1, the binding result is listed as “binds”.

The values are drawn from patent US20240101667A1, “METHODS FOR IDENTIFYING LILRB-BLOCKING ANTIBODIES” (THE BOARD OF REGENTS OF THE UNIVERSITY OF TEXAS SYSTEM, priority 2020, published 2024).
